# Some of the results follow. These are further read-outs of the screen, such as a control signal, another cell line or another target. No call is given for them. Most of these compounds were active or inconclusive in the main read-out, so they are no random draw. Words in brackets tell the shape of the fitted curve; partial curves, single points and poor fits give uncertain potencies.
# Assay: qHTS Assay for Lipid Storage Modulators in Drosophila S3 Cells;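 as to cell number change: cells counted by Cell Tracker Red CMTPX staining in the red channel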
# Conditions: BODIPY lipid droplet fluorescence, 18-24 h; for cell number change: measured here: cell count max response, cells fed with added oleic acid
# Procedure, shortened: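 Laser-scanning cytometry quantifies lipid droplet accumulation (500–530 nm total intensity; droplet/cell object ratio) in oleic acid-fed (400 uM added) Drosophila S3 cells treated with a concentration series. 20 uM Triacsin C defined 100% inhibition.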
# [1] = measured here: cell number channel AC50, cells fed with added oleic acid
# [2] = measured here: lipid fluorescence (Fed channel) AC50, cells fed with added oleic acid
Compound,cell number change [%],AC50 [1],AC50 [2]
CCN(CC)c1ccc2nc3ccc(N)cc3[n+](-c3ccccc3)c2c1,-98.8,"9200 nM [falling, partial curve]","8200 nM [falling, partial curve]"
COC(=O)NCc1ccc(CNC(=O)OC)cc1,-26.9,,"1460 nM [falling, partial curve, poor fit]"
CC(=O)c1c(C)oc2ccc(NS(=O)(=O)c3ccc(C(=O)O)cc3)cc12,28.3,,
O=C(Nc1ccccc1N1CCN(C(=O)c2ccccc2)CC1)c1ccc(Cl)cc1,5.91,,"8200 nM [falling, partial curve]"
Cc1cccc(OCCn2c(S(=O)(=O)O)nc3ccccc32)c1,-18,,
Cc1cc(C(=O)CSc2cccc[n+]2[O-])c(C)n1-c1ccc(Br)cc1,36.2,,
Cc1ccc(S(=O)(=O)N2CCC(C(=O)OC(C)C(=O)N(C)c3ccccc3)CC2)cc1C (stereo not given),12.9,"411 nM [falling, single point]","517 nM [falling, full curve]"
Cc1ccc(-c2nc(CS(=O)(=O)CC(=O)NC3CC3)c(C)o2)cc1,24.2,,"6510 nM [falling, single point]"
Cc1onc(-c2ccccc2Cl)c1C(=O)NCc1nc(-c2ccccc2)no1,-0.879,,"29100 nM [rising, partial curve, poor fit]"
COc1ccccc1COC(=O)c1cccc(S(=O)(=O)N2CCCC2)c1,-10,,
CC(=O)Nc1ccc(CN2CCN(C3CCCCC3)C(CCO)C2)cc1 (stereo not given),-2.91,,"920 nM [falling, full curve, poor fit]"
CN1C(=O)CSc2ccc(NC(=O)Nc3ccccn3)cc21,,"1460 nM [rising, partial curve]",
COCCCNC(=O)CC(NS(=O)(=O)c1ccc(Cl)cc1)c1ccco1 (stereo not given),,,"206 nM [falling, full curve, poor fit]"
Cc1oc(-c2ccccc2)nc1CS(=O)CC(=O)O (stereo not given),4.95,,"5.8 nM [falling, full curve, poor fit]"
CC1(C)O[C@@H]2C[C@H]3[C@@H]4C[C@H](F)C5=CC(=O)CC[C@]5(C)[C@H]4[C@@H](O)C[C@]3(C)[C@]2(C(=O)CO)O1,-26.4,,"20600 nM [falling, single point]"
O=C(NC1CCCCC1)N1CCCC(c2nc3ccccc3[nH]2)C1 (stereo not given),20.8,,"14600 nM [rising, partial curve]"
CC(=O)c1ccc(N2CCN(C(=O)CCCn3c(=O)[nH]c4ccccc4c3=O)CC2)cc1,-20.8,"130 nM [falling, full curve, poor fit]",

# Part of the list above in order of heavy-atom count, falling:
Compound,cell number change [%],AC50 [1],AC50 [2]
Cc1ccc(S(=O)(=O)N2CCC(C(=O)OC(C)C(=O)N(C)c3ccccc3)CC2)cc1C (stereo not given),12.9,"411 nM [falling, single point]","517 nM [falling, full curve]"
CC1(C)O[C@@H]2C[C@H]3[C@@H]4C[C@H](F)C5=CC(=O)CC[C@]5(C)[C@H]4[C@@H](O)C[C@]3(C)[C@]2(C(=O)CO)O1,-26.4,,"20600 nM [falling, single point]"
Cc1onc(-c2ccccc2Cl)c1C(=O)NCc1nc(-c2ccccc2)no1,-0.879,,"29100 nM [rising, partial curve, poor fit]"

# Reference: PubChem BioAssay AID2685 (National Center for Advancing Translational Sciences (NCATS), 2010)
